The other results are listed elsewhere or left out. Single values are uncertain here, since repeats match poorly.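 Free-swimming zebrafish larvae were scored for O-bend response probability to dark flashes (naive: first five; training: remaining flashes of four 60-flash blocks; test: later 60-flash block) and for turning toward alternating leftward/rightward LED motion (OMR). Six treated larvae were compared with sixty 0.1% DMSO controls; |SSMD|≥2 defined a hit.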
How the values were obtained:
Settings in all cases: 10 µM; pre-incubation: 30-90 min
[1] = system: Danio rerio larvae (5 dpf, TLF); experiment: OMR-Perf (SSMD vs DMSO vehicle); higher = higher than vehicle (e.g. higher dark-flash O-bend response probability, or better optomotor performance)
[2] = system: Danio rerio larvae (5 dpf, TLF); experiment: Prob-Test (SSMD vs DMSO vehicle); higher = higher than vehicle (e.g. higher dark-flash O-bend response probability, or better optomotor performance)
[3] = system: Danio rerio larvae (5 dpf, TLF); experiment: Prob-Naive (SSMD vs DMSO vehicle); higher = higher than vehicle (e.g. higher dark-flash O-bend response probability, or better optomotor performance)
[4] = system: Danio rerio larvae (5 dpf, TLF); experiment: Prob-Train (SSMD vs DMSO vehicle); higher = higher than vehicle (e.g. higher dark-flash O-bend response probability, or better optomotor performance)

SMILES	OMR-Perf [1]	Prob-Test [2]	Prob-Naive [3]	Prob-Train [4]
CC[C@@H]1/C=C(\C)C[C@H](C)C[C@H](OC)[C@@H]2O[C@@](O)(C(=O)C(=O)N3CCCC[C@H]3C(=O)O[C@H](/C(C)=C/[C@@H]3CC[C@@H](Cl)[C@H](OC)C3)[C@H](C)[C@@H](O)CC1=O)[C@H](C)C[C@@H]2OC [Pimecrolimus]	-0.544	0.519	0.045	0.373
CCOc1nc2cccc(C(=O)O)c2n1Cc1ccc(-c2ccccc2-c2nc(=O)o[nH]2)cc1 [Azilsartan]	-0.395	-0.138	-0.319	-0.384
NCC[C@H](O)C(=O)N[C@@H]1C[C@H](N)[C@@H](O[C@H]2O[C@H](CN)[C@@H](O)[C@H](O)[C@H]2O)[C@H](O)[C@H]1O[C@H]1O[C@H](CO)[C@@H](O)[C@H](N)[C@H]1O [Amikacin hydrate]	0.0184	0.336	-0.142	0.204
CN(C)Cc1cccc(N/C(=C2\C(=O)Nc3cc(C(=O)N(C)C)ccc32)c2ccccc2)c1	0.199	-0.133	-0.216	0.109
Cl.NC1CCN(c2c(F)cc3c(=O)c(C(=O)O)cn(C4CC4)c3c2Cl)C1 (centres undefined) [Clinafoxacin HCl]	-0.0682	0.111	-0.0763	0.428
COC(=O)c1ccc2c(c1)nc(NC(=O)c1ccccc1)n2CCCc1ccccc1	-0.357	0.151	0.446	-0.531
NC1(C(=O)N[C@@H](CCO)c2ccc(Cl)cc2)CCN(c2ncnc3[nH]ccc23)CC1	0.0249	0.000671	0.456	-0.582
Cn1c(Nc2ccc(C(F)(F)F)cc2)nc2cc(Oc3ccnc(-c4ncc(C(F)(F)F)[nH]4)c3)ccc21	-0.495	-0.211	0.313	-0.106
CN1CCN(CCOc2cc(OC3CCOCC3)c3c(Nc4c(Cl)ccc5c4OCO5)ncnc3c2)CC1 [Saracatinib (AZD0530)]	0.26	-0.244	0.35	0.0168
CCc1nc(-c2cccc(C)c2)c(-c2ccnc(NC(=O)c3ccccc3)c2)s1	-0.506	-0.789	-0.137	-0.748
O=C1CCc2cc(OCCCCc3nnnn3C3CCCCC3)ccc2N1 [Cilostazol]	0.574	-0.531	0.302	0.194
CN(Cc1cc(Br)cc(Br)c1N)C1CCCCC1.Cl [Bromhexine HCl]	-0.699	-0.968	-0.219	-0.743
COC(=O)C1=C(C)NC(C)=C(C(=O)OC)C1c1ccccc1[N+](=O)[O-] [Nifedipine]	-0.137	-0.32	0.184	-0.52
COc1ccc2cc3[n+](cc2c1OC)CCc1cc2c(cc1-3)OCO2.[Cl-] [Berberine HCl]	-0.00232	0.0574	0.0498	-0.157
CN(C)c1ccc(O)c2c1C[C@@H]1C[C@H]3[C@H](N(C)C)C(O)=C(C(N)=O)C(=O)[C@@]3(O)C(O)=C1C2=O.Cl [Minocycline HCl]	-0.0705	-0.968	0.0912	-0.373
CCCOc1ccc2nc(NC(=O)OC)[nH]c2c1 [Oxibendazole]	-1.03	-1.79	0.0939	-0.214
CC1(C)[C@@H](OC(=O)CCC(=O)O)CC[C@]2(C)[C@H]3C(=O)C=C4[C@@H]5C[C@@](C)(C(=O)O)CC[C@]5(C)CC[C@@]4(C)[C@]3(C)CC[C@@H]12 [Carbenoxolone Sodium]	-0.377	-0.522	0.0912	-0.239
Cc1cc(F)c(Nc2ncnc3cc(OCc4ccccc4)ccc23)cc1O.Cl	-0.0707	-0.0421	0.0457	-0.0889
CN/C(=C\[N+](=O)[O-])NCCSCc1ccc(CN(C)C)o1.Cl [Ranitidine]	-0.0502	-0.198	0.0131	-0.142
CC(C(=O)O)c1cccc(C(=O)c2ccccc2)c1 (centres undefined) [Ketoprofen]	-0.431	0.0123	-0.0588	0.0493
Cc1c(OCC(F)(F)F)ccnc1C[S@@](=O)c1nc2ccccc2[nH]1 [Dexlansoprazole]	0.328	-0.333	0.00602	-1.51
Cc1c(-c2ccccc2)oc2c(C(=O)OCCN3CCCCC3)cccc2c1=O.Cl [Flavoxate HCl]	0.349	0.416	0.185	-0.272
COc1cc2c(cc1OC)C(=O)C(CC1CCN(Cc3ccccc3)CC1)C2.Cl (centres undefined) [Donepezil HCl (Aricept)]	-0.377	0.933	-0.492	1.01

One compound at a time (already shown):
CN(C)c1ccc(O)c2c1C[C@@H]1C[C@H]3[C@H](N(C)C)C(O)=C(C(N)=O)C(=O)[C@@]3(O)C(O)=C1C2=O.Cl [Minocycline HCl] is listed as OMR-Perf [1]: -0.0705; Prob-Test [2]: -0.968; Prob-Naive [3]: 0.0912; Prob-Train [4]: -0.373
CCCOc1ccc2nc(NC(=O)OC)[nH]c2c1 [Oxibendazole] is listed as OMR-Perf [1]: -1.03; Prob-Test [2]: -1.79; Prob-Naive [3]: 0.0939; Prob-Train [4]: -0.214

(cont.)

SMILES	OMR-Perf [1]	Prob-Test [2]	Prob-Naive [3]	Prob-Train [4]
CNC(=O)[C@H](Cc1c[nH]c2ccccc12)NC(=O)[C@@H](CC(=O)NO)CC(C)C [Ilomastat (GM6001, Galardin)]	0.199	0.0353	-0.199	-0.378
COc1ccc(-c2oc3c(CC=C(C)C)c(OC4O[C@H](CO)[C@@H](O)[C@H](O)[C@H]4O)cc(O)c3c(=O)c2OC2O[C@@H](C)[C@H](O)[C@@H](O)[C@@H]2O)cc1 (some centres undefined) [Icariin]	-0.157	0.105	0.584	0.33
CC1=C(/C=C/C(C)=C/C=C/C(C)=C/C(=O)O)C(C)(C)CCC1 [Tretinoin]	0.481	-0.62	-0.386	-1.08
CCCc1cc(C)[nH]c(=O)c1CNC(=O)c1cc(-c2ccc(N3CCN(C(C)C)CC3)nc2)cc2c1cnn2C(C)C	-0.821	0.136	0.146	-0.626
CC(C)N(CCCNC(=O)Nc1ccc(C(C)(C)C)cc1)C[C@H]1O[C@@H](n2ccc3c(N)ncnc32)[C@H](O)[C@@H]1O.Cl	0.372	-0.139	0.146	-0.385
COC(=O)Nc1ccc(-c2nc(N3CCOCC3)c3cnn(C4CCN(C(=O)OC)CC4)c3n2)cc1	-0.127	-0.956	0.113	-0.806
C[C@H](O)[C@@H]1C(=O)N2C(C(=O)O)=C(S[C@@H]3CN[C@H](CNS(N)(=O)=O)C3)[C@@H](C)[C@@H]12.O [Doripenem Hydrate]	-0.382	-0.0444	0.322	-0.0491
CCCCCCCN(CC)CCCC(O)c1ccc(NS(C)(=O)=O)cc1.CCCCCCCN(CC)CCCC(O)c1ccc(NS(C)(=O)=O)cc1.O=C(O)/C=C/C(=O)O (centres undefined) [Ibutilide Fumarate]	-0.199	-0.0192	0.42	-0.0863
Cc1cccc(Nc2ccncc2S(=O)(=O)NC(=O)NC(C)C)c1 [Torsemide]	-0.101	-0.0798	0.471	-0.0794
COC(=O)c1ccc2c(c1)NC(=O)/C2=C(\Nc1ccc(N(C)C(=O)CN2CCN(C)CC2)cc1)c1ccccc1 [Nintedanib (BIBF 1120)]	0.203	0.0507	-0.686	-0.56
CN(CCOc1ccc(CC2SC(=O)NC2=O)cc1)c1ccccn1.Cl (centres undefined) [Rosiglitazone HCl]	0.603	-1.63	0.507	-1.62
CCCCNc1cc(C(=O)O)cc(S(N)(=O)=O)c1Oc1ccccc1 [Bumetanide]	0.0927	0.453	-0.395	0.0134
CCOc1cc2ncc(C#N)c(Nc3ccc(OCc4ccccn4)c(Cl)c3)c2cc1NC(=O)/C=C/CN(C)C [Neratinib (HKI-272)]	0.263	0.488	-0.212	0.0647
CCOC(=O)N1CCC(=C2c3ccc(Cl)cc3CCc3cccnc32)CC1 [Loratadine]	-0.746	-1.28	-0.302	-1.63
CCCCC[C@H](O)/C=C/[C@H]1[C@H](CCCCCCC(=O)O)C(=O)C[C@@H]1O [Alprostadil]	-0.545	-1.72	-0.766	-2.05
CS(=O)(=O)O.CS(=O)(=O)O.N=C(N)Nc1ccc(C(=O)Oc2ccc3cc(C(=N)N)ccc3c2)cc1 [Nafamostat Mesylate]	0.194	0.0524	-0.414	-0.985
O=c1cc(-c2ccccc2)oc2cc(O)cc(O)c12 [Chrysin]	0.24	-0.807	-0.399	-0.294
COc1ccc(CC2c3cc(OC)c(OC)cc3CC[N+]2(C)CCC(=O)OCCCCCOC(=O)CC[N+]2(C)CCc3cc(OC)c(OC)cc3C2Cc2ccc(OC)c(OC)c2)cc1OC.O=S(=O)([O-])c1ccccc1.O=S(=O)([O-])c1ccccc1 (centres undefined) [Atracurium Besylate]	-0.221	-0.469	-0.193	-0.604
CN(Cc1cnc2nc(N)nc(N)c2n1)c1ccc(C(=O)N[C@@H](CCC(=O)O)C(=O)O)cc1 [Methotrexate]	-0.958	-1.24	0.214	-1.1
COc1cc2c(Oc3ccc4[nH]c(C)cc4c3F)ncnc2cc1OCCCN1CCCC1 [Cediranib (AZD2171)]	-0.121	0.198	0.35	0.134
CCC(=O)Nc1cccc(Oc2nc(Nc3ccc(N4CCN(C)CC4)cc3OC)ncc2Cl)c1	-0.586	-0.125	0.227	-0.254
Cc1cc(OCCCS(C)(=O)=O)cc(C)c1-c1cccc(COc2ccc3c(c2)OC[C@H]3CC(=O)O)c1.Cc1cc(OCCCS(C)(=O)=O)cc(C)c1-c1cccc(COc2ccc3c(c2)OC[C@H]3CC(=O)O)c1.O	-0.174	0.036	-0.599	-1.06
NC(=O)c1ccc(-c2nc(-c3ccc4c(c3)OCO4)c(-c3ccccn3)[nH]2)cc1	0.246	-0.359	0.456	-0.0393
